Data from the supplement of paper PMC10331698.
± gives the standard deviation of the averaged measurements. Most entries show no effect beyond the scatter of the controls.

What was measured:
Assay in all cases: level (log10 ratio to DMSO vehicle control); higher = higher biomarker level / cell amount than vehicle control
[1] = compound: C=C(C)C(=O)OCCC(F)(F)C(F)(F)C(F)(F)C(F)(F)C(F)(F)C(F)(F)F [6:2 Fluorotelomer methacrylate] (in DMSO); details: 2200 nM
Description: (§1)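 BioMAP Diversity Plus panel of 12 human primary cell co-culture systems (3C, 4H, LPS, SAg, BT, BF4T, BE3C, CASM3C, HDF3CGF, KF3CT, MyoF, Mphg). Compounds were added 1 h before stimulation and left for 24 h (MyoF 48 h; BT 72 h for soluble read-outs or 6 d for IgG). Biomarkers were read by ELISA, cytotoxicity by SRB, PBMC viability and proliferation by Alamar Blue. Each well value was divided by the mean of 8 DMSO control wells on the same plate and log10 transformed; duplicate blinded samples were tested at 4 concentrations.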

[2] = compound: O=C(O)C(F)(F)C(F)(F)C(F)(F)C(=O)O [Hexafluoroglutaric acid] (in DMSO)
Description: as §1

[3] = compound: FC(F)(F)C(F)(F)C(F)(F)C(F)(F)CCI [1H,1H,2H,2H-Perfluorohexyl iodide] (in DMSO); details: 2200 nM
Description: as §1

[4] = compound: O=C(O)C(F)(F)C(F)(F)C(F)(F)C(F)(F)C(F)(F)F [Perfluorohexanoic acid] (in DMSO)
Description: as §1

[5] = compound: FC(F)(F)C(F)(F)CNCC(F)(F)C(F)(F)F [Bis(1H,1H-perfluoropropyl)amine] (in DMSO); details: 2200 nM
Description: as §1

[6] = compound: OCC(F)(F)C(F)(F)C(F)(F)C(F)(F)C(F)(F)C(F)(F)F [6:1 Fluorotelomer alcohol] (in DMSO); details: 2200 nM
Description: as §1

[7] = compound: O=C(O)CCC(F)(F)C(F)(F)C(F)(F)F [3:3 Fluorotelomer carboxylic acid] (in DMSO); details: 2200 nM
Description: as §1

[8] = compound: OCC(F)(F)C(F)(F)C(F)(F)C(F)(F)C(F)(F)C(F)(F)CO [1H,1H,8H,8H-Perfluorooctane-1,8-diol] (in DMSO); details: 2200 nM
Description: as §1

[9] = compound: O=C(O)C(F)(F)C(F)(F)C(F)(F)OC(F)(C(F)(F)F)C(F)(F)F [Perfluoro-4-isopropoxybutanoic acid] (in DMSO); details: 2200 nM
Description: as §1

[10] = compound: OCCCC(F)(F)C(F)(F)C(F)(F)C(F)(F)C(F)(F)C(F)(F)C(F)(F)C(F)(F)F [3-(Perfluorooctyl)propanol] (in DMSO); details: 2200 nM
Description: as §1

[11] = compound: OCC(F)(F)OC(F)(F)C(F)(F)OC(F)(F)CO [1H,1H,8H,8H-Perfluoro-3,6-dioxaoctane-1,8-diol] (in DMSO); details: 2200 nM
Description: as §1

[12] = compound: FC(F)(F)COC(OCC(F)(F)F)OCC(F)(F)F [tris(Trifluoroethoxy)methane] (in DMSO); details: 2200 nM
Description: as §1

[13] = compound: O=C(O)C(F)(OC(F)(F)C(F)(OC(F)(F)C(F)(OC(F)(F)C(F)(F)C(F)(F)F)C(F)(F)F)C(F)(F)F)C(F)(F)F [Perfluoro-(2,5,8-trimethyl-3,6,9-trioxadodecanoic)acid] (in DMSO); details: 370 nM
Description: as §1

[14] = compound: O=C(O)C(F)(OC(F)(F)C(F)(F)C(F)(F)F)C(F)(F)F [Ammonium perfluoro-2-methyl-3-oxahexanoate] (in Water)
Description: as §1

[15] = compound: CNS(=O)(=O)C(F)(F)C(F)(F)C(F)(F)C(F)(F)C(F)(F)C(F)(F)C(F)(F)C(F)(F)F [N-Methylperfluorooctanesulfonamide] (in DMSO); details: 2200 nM
Description: as §1

[16] = compound: O=S(=O)(O)C(F)(F)C(F)(F)C(F)(F)C(F)(F)F [Perfluorobutanesulfonic acid] (in DMSO)
Description: as §1

[17] = compound: OCC(F)(F)C(F)(F)C(F)(F)C(F)F [1H,1H,5H-Perfluoropentanol] (in DMSO); details: 2200 nM
Description: as §1

Test System	level (log10) [1]	level (log10) ([2]; 2200 nM)	level (log10) ([2]; 6700 nM)	level (log10) ([2]; 20000 nM)	level (log10) ([2]; 60000 nM)	level (log10) [3]	level (log10) ([4]; 2200 nM)	level (log10) ([4]; 6700 nM)	level (log10) ([4]; 20000 nM)	level (log10) ([4]; 60000 nM)	level (log10) [5]	level (log10) [6]	level (log10) [7]	level (log10) [8]	level (log10) [9]	level (log10) [10]	level (log10) [11]	level (log10) [12]	level (log10) [13]	level (log10) ([14]; 2200 nM)	level (log10) ([14]; 6700 nM)	level (log10) ([14]; 20000 nM)	level (log10) ([14]; 60000 nM)	level (log10) [15]	level (log10) ([16]; 2200 nM)	level (log10) ([16]; 6700 nM)	level (log10) ([16]; 20000 nM)	level (log10) ([16]; 60000 nM)	level (log10) [17]
CASM3C:CD142/Tissue Factor	-0.0115 ± 0.037	0.0105 ± 0.036	0.003 ± 0.033	0.0015 ± 0.005	0.0185 ± 0.021	-0.006 ± 0.052	-0.0045 ± 0.011	-0.0125 ± 0.013	-0.019 ± 0.0042	-0.0145 ± 0.005	-0.04	0.0005 ± 0.052	-0.001 ± 0.0099	-0.0195 ± 0.011	-0.0015 ± 0.079	-0.002 ± 0.0085	-0.02 ± 0.0042	-0.001 ± 0.021	0.021 ± 0.028	0.022 ± 0.033	0.022 ± 0.013	-0.0045 ± 0.028	-0.009 ± 0.089	0.009 ± 0.11	0.018 ± 0.028	-0.0085 ± 0.0035	-0.0115 ± 0.018	0.0135 ± 0.012	0.008 ± 0.041
CASM3C:CXCL8/IL-8	0.037 ± 0.042	0.009 ± 0.038	-0.002 ± 0.017	-0.016 ± 0.014	0.0075 ± 0.0064	0.031 ± 0.016	0.015 ± 0.0042	0.0005 ± 0.021	0.007 ± 0.0099	0.0265 ± 0.028	0.002 ± 0.0085	0.01 ± 0.023	-0.001 ± 0.0057	0.0015 ± 0.028	0.0435 ± 0.015	0.0125 ± 0.018	0.0055 ± 0.005	0.0035 ± 0.021	0.0065 ± 0.012	0.0165 ± 0.015	0.005 ± 0.0042	0.034 ± 0.024	0.056 ± 0.024	0.029 ± 0.023	0.0385 ± 0.064	0.0255 ± 0.049	0.0255 ± 0.025	0.0375 ± 0.025	0.0195 ± 0.0035
CASM3C:CXCL9/MIG	0.035 ± 0.033	0.0085 ± 0.052	-0.0195 ± 0.019	-0.02 ± 0.0085	0.022 ± 0.033	0.0435 ± 0.03	0.0055 ± 0.021	0.008 ± 0.0057	0.001 ± 0.0042	0.012 ± 0.021	0 ± 0.058	0.0125 ± 0.023	0.005 ± 0.0085	0.0165 ± 0.0064	0.0245 ± 0.066	-0.004 ± 0.0028	0.0145 ± 0.005	-0.002 ± 0.033	0.0105 ± 0.023	0.078 ± 0.024	0.039 ± 0.038	0.05 ± 0.0071	0.0595 ± 0.015	0.0155 ± 0.054	0.0245 ± 0.056	0.01 ± 0.028	0.0135 ± 0.035	0.0465 ± 0.0092	0.0395 ± 0.019
CASM3C:HLA-DR	0.001 ± 0.03	0.0195 ± 0.026	0.0165 ± 0.049	-0.015 ± 0.045	0.0055 ± 0.019	0.0345 ± 0.08	0.0275 ± 0.00071	0.004 ± 0.0099	-0.004 ± 0.0057	-0.004 ± 0.011	0.022 ± 0.048	0.008 ± 0.02	0.0155 ± 0.025	-0.0025 ± 0.013	0.018 ± 0.089	-0.0225 ± 0.018	0.006 ± 0.0028	-0.002 ± 0.014	0.0005 ± 0.032	0.046 ± 0.045	0.0195 ± 0.054	0.01 ± 0.059	0.004 ± 0.0071	0.0125 ± 0.076	0.0145 ± 0.019	-0.0085 ± 0.0035	-0.0075 ± 0.00071	-0.0025 ± 0.0078	0.009 ± 0.037
CASM3C:IL-6	-0.0045 ± 0.063	0.025 ± 0.033	-0.0175 ± 0.0035	-0.015 ± 0.021	0.022 ± 0.082	0.0495 ± 0.026	0.005	-0.0075 ± 0.042	-0.0155 ± 0.0021	-0.0125 ± 0.053	-0.007 ± 0.076	0.0145 ± 0.047	0.026 ± 0.067	0.0185 ± 0.036	0.0555 ± 0.039	0.007 ± 0.055	0.0185 ± 0.049	0.002 ± 0.028	-0.002 ± 0.047	0.0405 ± 0.036	0.0075 ± 0.005	-0.052 ± 0.042	-0.0375 ± 0.047	0.002 ± 0.096	0.0105 ± 0.00071	-0.032 ± 0.028	-0.0375 ± 0.0021	-0.015 ± 0.0057	-0.002 ± 0.014
CASM3C:LDLR	-0.041 ± 0.058	-0.0035 ± 0.00071	-0.009 ± 0.0099	-0.0175 ± 0.026	-0.015 ± 0.014	0.0295 ± 0.0092	0.0105 ± 0.022	0.001 ± 0.0028	-0.0065 ± 0.029	-0.0025 ± 0.039	-0.006 ± 0.017	0.0015 ± 0.035	0.008 ± 0.025	0.0325 ± 0.036	0.039 ± 0.0071	0.037 ± 0.028	0.029 ± 0.024	0.0095 ± 0.0035	0.016 ± 0.028	-0.0275 ± 0.013	-0.061 ± 0.057	-0.032 ± 0.04	-0.0545 ± 0.021	0.034 ± 0.064	-0.026 ± 0.014	-0.0305 ± 0.0035	-0.0255 ± 0.025	-0.0345 ± 0.053	-0.115 ± 0.049
CASM3C:M-CSF	-0.0075 ± 0.044	0.01 ± 0.059	-0.0135 ± 0.022	-0.0185 ± 0.033	0.018 ± 0.018	0.0325 ± 0.036	0.022 ± 0.037	-0.0185 ± 0.019	-0.0125 ± 0.013	0.0105 ± 0.0092	0.009 ± 0.023	0.002 ± 0.04	0.033 ± 0.09	0.022 ± 0.038	0.055 ± 0.0028	0.0115 ± 0.054	0.0145 ± 0.067	0.0075 ± 0.06	-0.0155 ± 0.013	-0.0635 ± 0.076	-0.049 ± 0.016	-0.0405 ± 0.0092	-0.0405 ± 0.022	0.022 ± 0.051	-0.0065 ± 0.022	-0.007 ± 0.031	-0.002	0.0025 ± 0.011	0.031 ± 0.011
CASM3C:PAI-I	-0.0015 ± 0.0021	0 ± 0.016	-0.0015 ± 0.015	-0.0005 ± 0.0064	0.0075 ± 0.0064	0.0195 ± 0.0035	0.001 ± 0.0099	0.0005 ± 0.005	-0.003 ± 0.0042	0.0095 ± 0.005	-0.0055 ± 0.011	0.0025 ± 0.0021	0 ± 0.0099	-0.003 ± 0.017	0.0165 ± 0.011	-0.0115 ± 0.005	0.01 ± 0.0014	0.0055 ± 0.016	0.001 ± 0.0085	0.0015 ± 0.0035	-0.007 ± 0.0085	-0.0005 ± 0.0092	-0.0025 ± 0.013	0.0105 ± 0.018	0.003 ± 0.0042	-0.0095 ± 0.012	0.0035 ± 0.0064	0.007 ± 0.0099	0.014 ± 0.013

Single records, as listed above. Order of values: level (log10) [1] | level (log10) ([2]; 2200 nM) | level (log10) ([2]; 6700 nM) | level (log10) ([2]; 20000 nM) | level (log10) ([2]; 60000 nM) | level (log10) [3] | level (log10) ([4]; 2200 nM) | level (log10) ([4]; 6700 nM) | level (log10) ([4]; 20000 nM) | level (log10) ([4]; 60000 nM) | level (log10) [5] | level (log10) [6] | level (log10) [7] | level (log10) [8] | level (log10) [9] | level (log10) [10] | level (log10) [11] | level (log10) [12] | level (log10) [13] | level (log10) ([14]; 2200 nM) | level (log10) ([14]; 6700 nM) | level (log10) ([14]; 20000 nM) | level (log10) ([14]; 60000 nM) | level (log10) [15] | level (log10) ([16]; 2200 nM) | level (log10) ([16]; 6700 nM) | level (log10) ([16]; 20000 nM) | level (log10) ([16]; 60000 nM) | level (log10) [17]
CASM3C:CXCL8/IL-8 is listed as 0.037 ± 0.042 | 0.009 ± 0.038 | -0.002 ± 0.017 | -0.016 ± 0.014 | 0.0075 ± 0.0064 | 0.031 ± 0.016 | 0.015 ± 0.0042 | 0.0005 ± 0.021 | 0.007 ± 0.0099 | 0.0265 ± 0.028 | 0.002 ± 0.0085 | 0.01 ± 0.023 | -0.001 ± 0.0057 | 0.0015 ± 0.028 | 0.0435 ± 0.015 | 0.0125 ± 0.018 | 0.0055 ± 0.005 | 0.0035 ± 0.021 | 0.0065 ± 0.012 | 0.0165 ± 0.015 | 0.005 ± 0.0042 | 0.034 ± 0.024 | 0.056 ± 0.024 | 0.029 ± 0.023 | 0.0385 ± 0.064 | 0.0255 ± 0.049 | 0.0255 ± 0.025 | 0.0375 ± 0.025 | 0.0195 ± 0.0035
CASM3C:CD142/Tissue Factor is listed as -0.0115 ± 0.037 | 0.0105 ± 0.036 | 0.003 ± 0.033 | 0.0015 ± 0.005 | 0.0185 ± 0.021 | -0.006 ± 0.052 | -0.0045 ± 0.011 | -0.0125 ± 0.013 | -0.019 ± 0.0042 | -0.0145 ± 0.005 | -0.04 | 0.0005 ± 0.052 | -0.001 ± 0.0099 | -0.0195 ± 0.011 | -0.0015 ± 0.079 | -0.002 ± 0.0085 | -0.02 ± 0.0042 | -0.001 ± 0.021 | 0.021 ± 0.028 | 0.022 ± 0.033 | 0.022 ± 0.013 | -0.0045 ± 0.028 | -0.009 ± 0.089 | 0.009 ± 0.11 | 0.018 ± 0.028 | -0.0085 ± 0.0035 | -0.0115 ± 0.018 | 0.0135 ± 0.012 | 0.008 ± 0.041
